Measured values taken from PubChem BioAssay AID328 (DTP/NCI, 2004).
The list shows only some results of the screen, not a fair sample: it covers a few groups of compounds. Other doses and runs of a compound may be missing. T/C gives the treated animals as a percentage of the vehicle group. Some doses have a count of surviving animals in place of a T/C: the source files T/C as zero there, which appears to mark a toxic dose or a test without result, not a measured value. Some survivor counts are full or nearly so, which does not show that the dose was tolerated: the source hardly ever lists a survival T/C far under the control, and the zero likely stands for such cases as well. Survivors were counted at the toxicity check, usually on the fifth day, unless a day is given; later deaths do not show. Schedule codes are those of the source, taken here to give the interval after Q, in days (D) or hours (H), and the number of doses after X. For survival time, the PubChem record calls one and a half times the control and up active, and a quarter to a half above the control has no call in these data; cut-offs in other NCI protocols can differ. Some T/C values carry the count of animals alive at the toxicity check (mostly the fifth day); where neither a count nor a note follows, no animal had died by that day. Some entries were tested several times; the results are listed from low to high.

Test system: BDF1 mice, P388 leukemia ip, median survival T/C
Assay: NCI In Vivo Anticancer Drug Screen. Data for tumor model P388 Leukemia (intraperitoneal) in B6D2F1 (BDF1) mice
Conditions: T/C endpoint: median survival time, higher T/C = longer survival
Procedure: The antitumor activity of compounds was measured in mice bearing transplantable tumors. Survival or tumor size were measured and the results are expressed as the measurement made in the treated group (T) divided by the measurement made in the vehicle treated control group (C). The tumor model used in this assay is P388 Leukemia (intraperitoneal) in B6D2F1 (BDF1) mice

[1] = dose: 100.0 mg/kg/injection, schedule: Q01DX009 (ip), vehicle: saline with Tween-80
[2] = dose: 200.0 mg/kg/injection, schedule: Q01DX009 (ip), vehicle: saline with Tween-80
[3] = dose: 10.0 mg/kg/injection, schedule: Q04DX003 (ip), vehicle: Klucel (hydroxypropylcellulose) (HPC)

## CC1COP(N(C(C)C)C(C)C)O1 (configuration not stated)
dose: 50.0 mg/kg/injection, schedule: Q01DX009 (ip), vehicle: saline with Tween-80
  T/C: 109 % of control
[1]
  T/C: 103 % of control
[2]
  T/C: 94 % of control

## ClCCNc1nc2ccccc2c2ccccc12
dose: 5.8 mg/kg/injection, schedule: Q01DX009 (ip), vehicle: saline
  T/C: 120 % of control
dose: 8.7 mg/kg/injection, schedule: Q01DX009 (ip), vehicle: saline
  T/C: 110 % of control
[3]
  T/C: 105 % of control
  survivor count: 6 of 6
dose: 13.3 mg/kg/injection, schedule: Q01DX009 (ip), vehicle: Klucel (hydroxypropylcellulose) (HPC)
  T/C: 125 % of control
dose: 13.3 mg/kg/injection, schedule: Q01DX009 (ip), vehicle: saline
  T/C: 95 % of control
dose: 13.3 mg/kg/injection, schedule: Q04DX003 (ip), vehicle: Klucel (hydroxypropylcellulose) (HPC)
  T/C: 100 and 112 % of control
dose: 20.0 mg/kg/injection, schedule: Q01DX009 (ip), vehicle: Klucel (hydroxypropylcellulose) (HPC)
  T/C: 120 % of control
dose: 20.0 mg/kg/injection, schedule: Q01DX009 (ip), vehicle: saline
  T/C: 109 and 133 % of control
dose: 20.0 mg/kg/injection, schedule: Q04DX003 (ip), vehicle: Klucel (hydroxypropylcellulose) (HPC)
  T/C: 95, 109, 116, 125 % of control
dose: 30.0 mg/kg/injection, schedule: Q01DX009 (ip), vehicle: Klucel (hydroxypropylcellulose) (HPC)
  T/C: 130 % of control
dose: 30.0 mg/kg/injection, schedule: Q01DX009 (ip), vehicle: saline
  T/C: 118 and 125 % of control
dose: 30.0 mg/kg/injection, schedule: Q04DX003 (ip), vehicle: Klucel (hydroxypropylcellulose) (HPC)
  T/C: 100 and 112 % of control
dose: 40.0 mg/kg/injection, schedule: Q04DX003 (ip), vehicle: Klucel (hydroxypropylcellulose) (HPC)
  T/C: 95 and 105 % of control
dose: 45.0 mg/kg/injection, schedule: Q01DX009 (ip), vehicle: saline
  T/C: 120 and 122 % of control
dose: 45.0 mg/kg/injection, schedule: Q04DX003 (ip), vehicle: Klucel (hydroxypropylcellulose) (HPC)
  T/C: 109 % of control
dose: 70.0 mg/kg/injection, schedule: Q01DX009 (ip), vehicle: saline
  T/C: 155 % of control
dose: 70.0 mg/kg/injection, schedule: Q04DX003 (ip), vehicle: Klucel (hydroxypropylcellulose) (HPC)
  T/C: 122 % of control
dose: 105.0 mg/kg/injection, schedule: Q01DX009 (ip), vehicle: saline
  survivor count: 0 of 6
dose: 105.0 mg/kg/injection, schedule: Q04DX003 (ip), vehicle: Klucel (hydroxypropylcellulose) (HPC)
  T/C: 122 % of control [4 of 6 alive]
dose: 160.0 mg/kg/injection, schedule: Q04DX003 (ip), vehicle: Klucel (hydroxypropylcellulose) (HPC)
  survivor count: 0 of 6
dose: 240.0 mg/kg/injection, schedule: Q04DX003 (ip), vehicle: Klucel (hydroxypropylcellulose) (HPC)
  survivor count: 0 of 6
dose: 360.0 mg/kg/injection, schedule: Q04DX003 (ip), vehicle: Klucel (hydroxypropylcellulose) (HPC)
  survivor count: 1 of 6

## NCCNCCCl
[1]
  T/C: 90 % of control
[2]
  T/C: 90 % of control

## CC(=O)Nc1ccc(N(CCCl)CCCl)cc1C
dose: 12.5 mg/kg/injection, schedule: Q01DX001 (ip), vehicle: Klucel (hydroxypropylcellulose) (HPC)
  T/C: 129 % of control
dose: 25.0 mg/kg/injection, schedule: Q01DX001 (ip), vehicle: Klucel (hydroxypropylcellulose) (HPC)
  T/C: 148 % of control
dose: 50.0 mg/kg/injection, schedule: Q01DX001 (ip), vehicle: Klucel (hydroxypropylcellulose) (HPC)
  T/C: 201 % of control [5 of 6 alive]

## C1CCC(NC2CCCCC2)CC1.CC(C)(Oc1ccc(N(CCCl)CCCl)cc1)C(=O)O
dose: 0.48 mg/kg/injection, schedule: Q04DX003 (ip), vehicle: Klucel (hydroxypropylcellulose) (HPC)
  T/C: 104 % of control
dose: 0.72 mg/kg/injection, schedule: Q04DX003 (ip), vehicle: Klucel (hydroxypropylcellulose) (HPC)
  T/C: 125 % of control
dose: 1.1 mg/kg/injection, schedule: Q04DX003 (ip), vehicle: Klucel (hydroxypropylcellulose) (HPC)
  T/C: 150 % of control
dose: 1.7 mg/kg/injection, schedule: Q04DX003 (ip), vehicle: Klucel (hydroxypropylcellulose) (HPC)
  T/C: 155 % of control
dose: 2.6 mg/kg/injection, schedule: Q04DX003 (ip), vehicle: Klucel (hydroxypropylcellulose) (HPC)
  T/C: 136 % of control
dose: 4.0 mg/kg/injection, schedule: Q04DX003 (ip), vehicle: Klucel (hydroxypropylcellulose) (HPC)
  T/C: 154 % of control
dose: 6.1 mg/kg/injection, schedule: Q04DX003 (ip), vehicle: Klucel (hydroxypropylcellulose) (HPC)
  T/C: 129 % of control
dose: 9.2 mg/kg/injection, schedule: Q04DX003 (ip), vehicle: Klucel (hydroxypropylcellulose) (HPC)
  T/C: 116 % of control
dose: 12.5 mg/kg/injection, schedule: Q01DX009 (ip), vehicle: saline
  T/C: 220 % of control
dose: 25.0 mg/kg/injection, schedule: Q01DX009 (ip), vehicle: saline
  T/C: 245 % of control
dose: 33.0 mg/kg/injection, schedule: Q04DX003 (ip), vehicle: Klucel (hydroxypropylcellulose) (HPC)
  T/C: 272 and 290 % of control
dose: 50.0 mg/kg/injection, schedule: Q01DX009 (ip), vehicle: saline
  T/C: 250 % of control
dose: 50.0 mg/kg/injection, schedule: Q04DX003 (ip), vehicle: Klucel (hydroxypropylcellulose) (HPC)
  T/C: 205, 272, 300 % of control
dose: 75.0 mg/kg/injection, schedule: Q04DX003 (ip), vehicle: Klucel (hydroxypropylcellulose) (HPC)
  T/C: 163 [5 of 6 alive] and 280 % of control
dose: 100.0 mg/kg/injection, schedule: Q04DX003 (ip), vehicle: Klucel (hydroxypropylcellulose) (HPC)
  survivor count: 6 of 6
dose: 200.0 mg/kg/injection, schedule: Q04DX003 (ip), vehicle: Klucel (hydroxypropylcellulose) (HPC)
  survivor count: 3 of 6

## COC1OC(CNCCCl)C2OC(C)(C)OC12 (configuration not stated)
dose: 40.0 mg/kg/injection, schedule: Q04DX003 (ip), vehicle: saline
  T/C: 133 % of control
dose: 60.0 mg/kg/injection, schedule: Q04DX003 (ip), vehicle: saline
  survivor count: 2 of 3
dose: 90.0 mg/kg/injection, schedule: Q04DX003 (ip), vehicle: saline
  T/C: 152 % of control
dose: 100.0 mg/kg/injection, schedule: Q01DX009 (ip), vehicle: saline
  T/C: 158 % of control
dose: 100.0 mg/kg/injection, schedule: Q04DX003 (ip), vehicle: saline
  T/C: 130 % of control
dose: 133.0 mg/kg/injection, schedule: Q04DX003 (ip), vehicle: saline
  T/C: 160 % of control
dose: 177.0 mg/kg/injection, schedule: Q01DX009 (ip), vehicle: saline
  survivor count: 6 of 6
dose: 200.0 mg/kg/injection, schedule: Q01DX009 (ip), vehicle: saline
  T/C: 162 % of control
dose: 200.0 mg/kg/injection, schedule: Q04DX003 (ip), vehicle: saline
  T/C: 150 and 175 % of control
dose: 266.0 mg/kg/injection, schedule: Q01DX009 (ip), vehicle: saline
  T/C: 108 % of control
dose: 300.0 mg/kg/injection, schedule: Q04DX003 (ip), vehicle: saline
  T/C: 180 % of control
dose: 400.0 mg/kg/injection, schedule: Q01DX009 (ip), vehicle: saline
  T/C: 129 and 204 % of control
dose: 400.0 mg/kg/injection, schedule: Q04DX003 (ip), vehicle: saline
  T/C: 173 % of control
dose: 600.0 mg/kg/injection, schedule: Q01DX009 (ip), vehicle: saline
  survivor count: 3 of 6

## OC(CNCCCl)C(O)C(O)C(O)CNCCCl (configuration not stated)
dose: 3.13 mg/kg/injection, schedule: Q01DX010 (ip), vehicle: saline
  T/C: 131 % of control
dose: 6.25 mg/kg/injection, schedule: Q01DX010 (ip), vehicle: saline
  T/C: 172 % of control
dose: 12.5 mg/kg/injection, schedule: Q01DX010 (ip), vehicle: saline
  T/C: 259 % of control
dose: 15.0 mg/kg/injection, schedule: Q01DX010 (ip), vehicle: water
  T/C: 109 % of control
dose: 25.0 mg/kg/injection, schedule: Q01DX010 (ip), vehicle: saline
  T/C: 118 % of control
dose: 30.0 mg/kg/injection, schedule: Q01DX010 (ip), vehicle: water
  survivor count: 6 of 6
